{"source": "PubChem BioAssay AID2685", "about": "(National Center for Advancing Translational Sciences (NCATS), 2010)", "test": "qHTS Assay for Lipid Storage Modulators in Drosophila S3 Cells;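 on cell number change: cells counted by Cell Tracker Red CMTPX staining in the red channel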", "details": "BODIPY lipid droplet fluorescence, 18-24 h; for cell number change: measured here: cell count max response, cells fed with added oleic acid", "procedure,_shortened": "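Drosophila S3 cells loaded with oleic acid (400 uM, as added) and compounds at several concentrations; lipid droplets imaged by 488-nm laser-scanning cytometry, 500–530 nm intensity and object ratio to cell channel. Percent activity normalized to 20 uM Triacsin C.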", "key": {"[1]": {"details": "measured here: lipid fluorescence (Fed channel) AC50, cells fed with added oleic acid"}, "[2]": {"details": "measured here: cell number channel AC50, cells fed with added oleic acid"}}, "note": "The list shows a part of the results. The main result of the screen is listed elsewhere. These columns were measured beside it and carry no call. Compounds called inactive in the main read-out are mostly missing here. Potencies come from curve fits of mixed quality, noted in brackets.", "data": [{"smiles": "CN(CCN1CCOCC1)Cc1nc(-c2ccccc2)no1", "values": [{"measurement": "cell number change", "result": 1.09, "unit": "%"}, {"measurement": "AC50", "setting": "[1]", "result": "6.51 µM [falling, single point]"}]}, {"smiles": "COc1ccc(NC(=O)/C=C/c2ccc(OC)c(OC)c2)cn1", "values": [{"measurement": "cell number change", "result": -20.6, "unit": "%"}, {"measurement": "AC50", "setting": "[1]", "result": "0.0058 µM [falling, full curve, poor fit]"}]}, {"smiles": "CCc1ccccc1NC(=O)COC(=O)c1c(C)nsc1NC", "values": [{"measurement": "cell number change", "result": -31.9, "unit": "%"}, {"measurement": "AC50", "setting": "[2]", "result": "6.51 µM [falling, partial curve, poor fit]"}, {"measurement": "AC50", "setting": "[1]", "result": "9.2 µM [falling, partial curve, poor fit]"}]}, {"smiles": "Cn1c(/C(C#N)=C(\\O)CN2CCN(Cc3ccccc3)CC2)nc2ccccc21", "values": [{"measurement": "cell number change", "result": 1.63, "unit": "%"}, {"measurement": "AC50", "setting": "[1]", "result": "29.1 µM [rising, single point]"}]}, {"smiles": "S=C(Nc1cccc(Cl)c1)Nc1ccc2c(c1)OCCO2", "values": [{"measurement": "cell number change", "result": -18.3, "unit": "%"}, {"measurement": "AC50", "setting": "[1]", "result": "6.51 µM [rising, single point]"}]}, {"smiles": "Cc1ccc(N2CC(C(=O)OCc3ccc([N+](=O)[O-])cc3)CC2=O)cc1", "note": "(stereo not given)", "values": [{"measurement": "cell number change", "result": -35.1, "unit": "%"}, {"measurement": "AC50", "setting": "[2]", "result": "14.6 µM [falling, partial curve]"}]}, {"smiles": "CC1CC(C)CN(C(=O)c2ccc3ccccc3c2)C1", "note": "(stereo not given)", "values": [{"measurement": "cell number change", "result": 90.8, "unit": "%"}, {"measurement": "AC50", "setting": "[2]", "result": "10.3 µM [rising, partial curve]"}]}, {"smiles": "COc1ccc(C(=O)Nc2cc(C)cc(C)c2)cc1S(=O)(=O)N1CCOCC1", "values": [{"measurement": "cell number change", "result": -21, "unit": "%"}, {"measurement": "AC50", "setting": "[1]", "result": "0.411 µM [falling, full curve]"}]}, {"smiles": "CCOC(=O)c1cc2c(=O)n3ccccc3nc2n(Cc2ccco2)c1=NC(=O)c1ccc(OC)cc1", "values": [{"measurement": "AC50", "setting": "[2]", "result": "0.164 µM [rising, full curve, poor fit]"}, {"measurement": "AC50", "setting": "[1]", "result": "0.291 µM [rising, partial curve, poor fit]"}]}, {"smiles": "CC(C)(C)NC(=O)C(c1ccccc1F)N(Cc1ccco1)C(=O)c1csnn1", "note": "(stereo not given)", "values": [{"measurement": "cell number change", "result": -20.5, "unit": "%"}, {"measurement": "AC50", "setting": "[1]", "result": "0.58 µM [falling, full curve]"}]}, {"smiles": "O=C(Nc1nnc(-c2ccc(Cl)cc2)o1)c1nc2ccccc2s1", "values": [{"measurement": "cell number change", "result": -27.1, "unit": "%"}]}, {"smiles": "COC(=O)/C=c1\\[nH]c2nnc(C)n2c1=O", "values": [{"measurement": "cell number change", "result": -8.42, "unit": "%"}, {"measurement": "AC50", "setting": "[1]", "result": "0.00517 µM [falling, full curve, poor fit]"}]}, {"smiles": "Brc1ccccc1OCCN1CCOCC1", "values": [{"measurement": "cell number change", "result": 8.73, "unit": "%"}, {"measurement": "AC50", "setting": "[1]", "result": "2.31 µM [rising, partial curve]"}]}, {"smiles": "Cc1ccc(N(CC(=O)Nc2cc(Cl)ccc2Oc2ccccc2)S(C)(=O)=O)cc1C", "values": [{"measurement": "cell number change", "result": 55, "unit": "%"}, {"measurement": "AC50", "setting": "[2]", "result": "25.9 µM [rising, single point]"}]}, {"smiles": "COC(=O)C1CCN(c2nc3ccccc3nc2C(C#N)C(=O)OCC(C)C)CC1", "note": "(stereo not given)", "values": [{"measurement": "cell number change", "result": -5.85, "unit": "%"}, {"measurement": "AC50", "setting": "[1]", "result": "29.1 µM [rising, single point]"}]}, {"smiles": "O=C(CCSc1ccccc1)N1CCOCC1", "values": [{"measurement": "cell number change", "result": -148, "unit": "%"}, {"measurement": "AC50", "setting": "[2]", "result": "14.6 µM [falling, partial curve]"}, {"measurement": "AC50", "setting": "[1]", "result": "23.1 µM [falling, partial curve]"}]}, {"smiles": "CCCCNC(=O)c1ccc2c(c1)ncn2C1CCCC1", "values": [{"measurement": "cell number change", "result": 102, "unit": "%"}, {"measurement": "AC50", "setting": "[2]", "result": "20.6 µM [rising, partial curve]"}]}, {"smiles": "CCN1C(=O)C(CC(=O)Nc2ccc(F)cc2)N(CCc2ccc(OC)cc2)C1=S", "note": "(stereo not given)", "values": [{"measurement": "cell number change", "result": -32.1, "unit": "%"}, {"measurement": "AC50", "setting": "[2]", "result": "20.6 µM [falling, single point]"}, {"measurement": "AC50", "setting": "[1]", "result": "18.4 µM [falling, single point]"}]}, {"smiles": "O=C(CCC(=O)N(c1ccccc1)C(C(=O)NC1CCCC1)c1ccncc1)Nc1cccnc1", "note": "(stereo not given)", "values": [{"measurement": "cell number change", "result": 37.2, "unit": "%"}, {"measurement": "AC50", "setting": "[2]", "result": "18.4 µM [rising, single point]"}, {"measurement": "AC50", "setting": "[1]", "result": "16.4 µM [rising, partial curve]"}]}, {"smiles": "CCOC(=O)[C@H]1[C@H]2COc3ccccc3[C@@H]2N2C(=O)c3cc(OC)c(OC)cc3NC(=O)[C@@]12C", "values": [{"measurement": "cell number change", "result": -52.3, "unit": "%"}, {"measurement": "AC50", "setting": "[2]", "result": "29.1 µM [falling, partial curve, poor fit]"}, {"measurement": "AC50", "setting": "[1]", "result": "36.6 µM [falling, partial curve, poor fit]"}]}, {"smiles": "COc1ccc(OC)c(Nc2nc(N)c([N+](=O)[O-])c(NCc3ccccc3)n2)c1", "values": [{"measurement": "AC50", "setting": "[2]", "result": "0.146 µM [rising, full curve, poor fit]"}]}, {"smiles": "O=C(COC(=O)c1c(F)cccc1F)NCc1ccc2c(c1)OCO2", "values": [{"measurement": "cell number change", "result": 20.3, "unit": "%"}, {"measurement": "AC50", "setting": "[1]", "result": "0.259 µM [falling, full curve]"}]}, {"smiles": "Fc1cccc(NC(=S)NNc2ccccc2)c1", "values": [{"measurement": "cell number change", "result": -5.56, "unit": "%"}, {"measurement": "AC50", "setting": "[1]", "result": "29.1 µM [rising, single point]"}]}, {"smiles": "Nc1nn(-c2cccc(F)n2)cc1-c1ccc(Cl)cc1", "values": [{"measurement": "AC50", "setting": "[1]", "result": "0.651 µM [rising, single point]"}]}, {"smiles": "O=C(COC(=O)COc1ccc(Cl)cc1)Nc1ncc(Br)s1", "values": [{"measurement": "cell number change", "result": -34.9, "unit": "%"}, {"measurement": "AC50", "setting": "[2]", "result": "20.6 µM [falling, single point]"}]}, {"smiles": "Brc1cc2c(cc1C1Nc3ccccc3C3C=CCC31)OCO2", "note": "(stereo not given)", "values": [{"measurement": "cell number change", "result": 4.89, "unit": "%"}, {"measurement": "AC50", "setting": "[1]", "result": "0.651 µM [rising, partial curve]"}]}, {"smiles": "NC(=O)CC(NC(=O)Cc1ccc(Br)cc1)c1ccc(NCCN2CCCCC2)c([N+](=O)[O-])c1", "note": "(stereo not given)", "values": [{"measurement": "cell number change", "result": -2.27, "unit": "%"}, {"measurement": "AC50", "setting": "[1]", "result": "0.651 µM [falling, partial curve, poor fit]"}]}, {"smiles": "CCC(CC)Nc1ccc(C(CC(N)=O)NC(=O)Cc2cccc3ccccc23)cc1[N+](=O)[O-]", "note": "(stereo not given)", "values": [{"measurement": "cell number change", "result": 139, "unit": "%"}, {"measurement": "AC50", "setting": "[1]", "result": "29.1 µM [falling, single point]"}]}, {"smiles": "Cc1ccc(N2CC(C(=O)N3CCCCCC3)CC2=O)cc1", "note": "(stereo not given)", "values": [{"measurement": "cell number change", "result": 13.9, "unit": "%"}]}, {"smiles": "CCC(C)(C)c1ccc(OCCCC[n+]2ccc(C)cc2)c(C(C)(C)CC)c1", "values": [{"measurement": "cell number change", "result": -85, "unit": "%"}, {"measurement": "AC50", "setting": "[2]", "result": "18.4 µM [falling, partial curve]"}, {"measurement": "AC50", "setting": "[1]", "result": "16.4 µM [falling, partial curve]"}]}, {"smiles": "Cc1nc2nc(COc3ccccc3)nn2c(C)c1Cl", "values": [{"measurement": "cell number change", "result": 3.26, "unit": "%"}, {"measurement": "AC50", "setting": "[1]", "result": "9.2 µM [rising, partial curve]"}]}, {"smiles": "Cc1nc2ccccc2c(=O)n1N(c1ccccc1)c1ccccc1", "values": [{"measurement": "cell number change", "result": -3.05, "unit": "%"}]}, {"smiles": "CSCc1c(C(=O)Nc2ccc3c(c2)OCO3)oc2ccccc12", "values": [{"measurement": "cell number change", "result": -26.3, "unit": "%"}, {"measurement": "AC50", "setting": "[1]", "result": "5.62 µM [rising, single point]"}]}, {"smiles": "COc1ccc(OCCSc2nnc3sc4ccccc4n23)cc1", "values": [{"measurement": "cell number change", "result": -16.8, "unit": "%"}]}, {"smiles": "O=C(CNCC1CCCO1)N1CCN(S(=O)(=O)c2ccc3ccccc3c2)CC1", "note": "(stereo not given)", "values": [{"measurement": "cell number change", "result": -14, "unit": "%"}, {"measurement": "AC50", "setting": "[2]", "result": "0.092 µM [falling, full curve, poor fit]"}]}, {"smiles": "COc1ccc(-n2c(C)cc(=O)c3c2CC(C)(C)CC3=O)cc1", "values": [{"measurement": "cell number change", "result": -45.8, "unit": "%"}, {"measurement": "AC50", "setting": "[2]", "result": "29.1 µM [falling, partial curve, poor fit]"}, {"measurement": "AC50", "setting": "[1]", "result": "0.58 µM [falling, full curve]"}]}, {"smiles": "CN(CC(=O)Nc1ccc(N2CCOCC2)cc1)C(=O)c1cc(S(=O)(=O)N(C)C)ccc1Cl", "values": [{"measurement": "cell number change", "result": 13.8, "unit": "%"}, {"measurement": "AC50", "setting": "[1]", "result": "11.6 µM [rising, partial curve]"}]}]}
